This is one part of the list. Values are raw readings; no control value is given beside them.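 First-pass screen: polymyxin B was added at a level that permeabilizes the Salmonella outer membrane while sparing the inner membrane. DMSO wells, with and without polymyxin B, defined maximum growth. Because plates differed from one another, each plate's data were ranked separately and the compounds with the lowest OD600 were carried forward as hits.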
Test system: Salmonella enterica serovar Typhimurium SL1344
Experiment: bacterial growth OD600 after 18 h with compound and polymyxin B; higher = more bacterial growth (less inhibition)
Details: 50 µM, Mueller-Hinton broth

Row | Compound | bacterial growth OD600 (polymyxin B 0.75 µg/mL) | bacterial growth OD600 (polymyxin B 1 µg/mL)
1 | O=C(CN1Cc2ccccc2OC(c2ccccc2F)C1)N1CCCCC1c1ccccn1 (centres undefined) | 0.043 | –
2 | Cc1cc(C)cc(CN2CCC(N3CCCC(C(=O)NC4CC4)C3)CC2)c1 (centres undefined) | 0.841 | –
3 | COc1cccc(CN2CCCC(c3nc(-c4ccncc4)ncc3-c3ccccc3C)C2)c1OC (centres undefined) | 0.994 | –
4 | COc1cc(OC)cc(C(=O)NCC2CCCN(Cc3cnn(C)c3C)C2)c1 (centres undefined) | – | 0.943
5 | CCC(C)CN1CCCC(c2[nH]ncc2CC(C)C)C1 (centres undefined) | 0.809 | –
6 | CCOC(=O)C1(Cc2cccc(Cl)c2)CCCN(C(=O)CCSC)C1 (centres undefined) | – | 0.701
7 | CCOC(=O)N1CCN(C(=O)c2ccc(N3CCC(NCCN4CCOCC4)CC3)cc2)CC1 | 0.834 | –
8 | COc1ccc(C(=O)NC2CC2)c(OC2CCN(Cc3nc(C)c[nH]3)CC2)c1 | 0.846 | –
9 | COc1ccc(CNC(=O)CCC2CCCN(Cc3cccc(O)c3)C2)c(OC)c1 (centres undefined) | 0.792 | –
10 | Cc1ccc2c(c1)CN(CCC(=O)NCC(C)(C)CO)CC(C)O2 (centres undefined) | 0.779 | –
11 | CCn1cc(CN2CCCC(CNC(=O)COc3ccccc3OC)C2)c(C)n1 (centres undefined) | – | 0.976
12 | Cc1ccc(CN2CC[C@@H](N3CCC(O)CC3)[C@H](O)C2)cc1C | – | 0.937
13 | COc1cc(CN2CCCC(CO)(Cc3ccc(F)cc3)C2)ccc1O (centres undefined) | 0.871 | –
14 | COCCCN1C(=O)CC(CC(=O)N(C)Cc2ccccn2)(c2ccccc2Cl)C1=O (centres undefined) | 0.82 | –
15 | CCCc1cc(C(=O)NCC2Cc3cc(-c4ccnc(SC)n4)cc(Cl)c3O2)no1 (centres undefined) | 0.507 | –
16 | CCC(=O)C1CCCN(C(=O)C2CCN(c3nc(C)c4ccc(S(C)(=O)=O)cc4n3)CC2)C1 (centres undefined) | 0.914 | –
17 | CCOc1ccc(C2c3[nH]c4ccccc4c3CCN2C(=O)C2CCC2)cc1 (centres undefined) | 0.323 | –
18 | COc1ccc(C(=O)N2CCC(C3CCN(Cc4cccnc4)CC3)C2)o1 (centres undefined) | 0.811 | –
19 | O=C(Nc1ccnn1C1CCN(Cc2nc3ccccc3s2)CC1)C1CC1 | – | 0.972
20 | CCOC(=O)N1CCN(Cc2ccc3c(c2)CN(C(=O)CCc2c[nH]c4ccccc24)CCO3)CC1 | 0.797 | –
21 | Cc1ccc(OCc2cc(C(=O)N3CCC(C(=O)c4ccccc4)CC3)no2)cn1 | – | 0.918
22 | Cc1cc(CNCC2(O)CCCN(Cc3ccccc3F)C2=O)[nH]n1 (centres undefined) | – | 1.01
23 | COc1ccc2cc(-c3n[nH]cc3CN(Cc3nccn3C)C(C)C)ccc2c1 | – | 0.833
24 | CO[C@H]1[C@H](NC(=O)c2ccsc2)c2ccccc2C12CCN(Cc1cccc(OCCO)c1)CC2 | 0.749 | –
25 | Cc1ccccc1N1CCN(C2CCCN(Cc3ccc(O)cc3)C2)CC1 (centres undefined) | – | 0.889
26 | C=CCn1cc(CN2C[C@H]3OC(=O)N(CCc4ccc(F)cc4)[C@H]3C2)c(C)n1 | 0.852 | –
27 | CCOC(=O)c1csc(CCNC(=O)C2CCN(c3nc(C)c4cc(C(C)C)ccc4n3)CC2)n1 | 0.676 | –
28 | CCOC(=O)C1(Cc2cccc(Cl)c2)CCCN(C(=O)CCC(F)(F)F)C1 (centres undefined) | – | 0.607
29 | CCN1CCN(C2(C(=O)NCCc3c[nH]cn3)Cc3ccccc3C2)CC1 | 0.786 | –

Entries above that contain a Cl atom (4):
Row | Compound | bacterial growth OD600 (polymyxin B 0.75 µg/mL) | bacterial growth OD600 (polymyxin B 1 µg/mL)
6 | CCOC(=O)C1(Cc2cccc(Cl)c2)CCCN(C(=O)CCSC)C1 (centres undefined) | – | 0.701
14 | COCCCN1C(=O)CC(CC(=O)N(C)Cc2ccccn2)(c2ccccc2Cl)C1=O (centres undefined) | 0.82 | –
15 | CCCc1cc(C(=O)NCC2Cc3cc(-c4ccnc(SC)n4)cc(Cl)c3O2)no1 (centres undefined) | 0.507 | –
28 | CCOC(=O)C1(Cc2cccc(Cl)c2)CCCN(C(=O)CCC(F)(F)F)C1 (centres undefined) | – | 0.607

From the supplement of paper PMC12889115
